According to US20120046329A1, “MODULATORS OF NOD1 AND NOD2 SIGNALING, METHODS OF IDENTIFYING MODULATORS OF NOD1 AND NOD2 SIGNALING, AND USES THEREOF” (Sanford-Burnham Medical Research Institute, priority 2010, published 2012):
Some entries share one result that the patent states for a list of compounds. For at least one compound, name, drawing or mass did not settle the structure.

Chains of the proteins cited; added tags and fusions are not shown.
UniProt Q9HC29, whole entry: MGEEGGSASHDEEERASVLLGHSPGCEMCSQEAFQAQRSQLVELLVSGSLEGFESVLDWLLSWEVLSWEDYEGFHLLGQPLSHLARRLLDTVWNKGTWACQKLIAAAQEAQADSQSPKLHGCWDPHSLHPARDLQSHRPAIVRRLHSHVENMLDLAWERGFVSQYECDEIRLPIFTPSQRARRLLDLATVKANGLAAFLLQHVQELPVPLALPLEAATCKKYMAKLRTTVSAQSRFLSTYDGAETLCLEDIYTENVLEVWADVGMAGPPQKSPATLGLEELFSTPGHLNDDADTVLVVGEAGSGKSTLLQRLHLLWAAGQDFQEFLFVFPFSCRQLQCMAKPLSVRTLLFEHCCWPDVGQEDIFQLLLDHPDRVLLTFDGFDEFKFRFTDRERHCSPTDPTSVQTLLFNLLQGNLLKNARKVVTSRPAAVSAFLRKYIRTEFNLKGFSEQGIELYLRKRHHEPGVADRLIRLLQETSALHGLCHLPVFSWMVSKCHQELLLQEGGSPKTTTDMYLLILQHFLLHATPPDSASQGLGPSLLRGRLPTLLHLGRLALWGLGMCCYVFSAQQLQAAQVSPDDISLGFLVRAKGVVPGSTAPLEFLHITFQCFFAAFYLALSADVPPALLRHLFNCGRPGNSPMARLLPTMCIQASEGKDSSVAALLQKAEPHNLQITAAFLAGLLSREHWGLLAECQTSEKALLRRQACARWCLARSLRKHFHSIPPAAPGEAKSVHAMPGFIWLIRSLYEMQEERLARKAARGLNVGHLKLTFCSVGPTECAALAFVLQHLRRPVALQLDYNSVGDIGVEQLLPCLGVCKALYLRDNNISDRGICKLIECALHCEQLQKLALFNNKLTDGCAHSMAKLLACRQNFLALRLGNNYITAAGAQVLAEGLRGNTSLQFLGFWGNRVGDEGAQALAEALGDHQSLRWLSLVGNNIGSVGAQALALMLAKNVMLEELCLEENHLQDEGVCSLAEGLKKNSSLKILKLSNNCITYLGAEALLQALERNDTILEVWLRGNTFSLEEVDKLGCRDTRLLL

What was measured:
[1] = target: T1, NOD1 (Homo sapiens, UniProt Q9Y239); assay: NOD1 NF-κB luciferase reporter assay, γ-tri-DAP-stimulated HEK293T cells; conditions: LOPAC screen, 384-well, compounds at 4 μM
T1 sequence (Q9Y239 1-953): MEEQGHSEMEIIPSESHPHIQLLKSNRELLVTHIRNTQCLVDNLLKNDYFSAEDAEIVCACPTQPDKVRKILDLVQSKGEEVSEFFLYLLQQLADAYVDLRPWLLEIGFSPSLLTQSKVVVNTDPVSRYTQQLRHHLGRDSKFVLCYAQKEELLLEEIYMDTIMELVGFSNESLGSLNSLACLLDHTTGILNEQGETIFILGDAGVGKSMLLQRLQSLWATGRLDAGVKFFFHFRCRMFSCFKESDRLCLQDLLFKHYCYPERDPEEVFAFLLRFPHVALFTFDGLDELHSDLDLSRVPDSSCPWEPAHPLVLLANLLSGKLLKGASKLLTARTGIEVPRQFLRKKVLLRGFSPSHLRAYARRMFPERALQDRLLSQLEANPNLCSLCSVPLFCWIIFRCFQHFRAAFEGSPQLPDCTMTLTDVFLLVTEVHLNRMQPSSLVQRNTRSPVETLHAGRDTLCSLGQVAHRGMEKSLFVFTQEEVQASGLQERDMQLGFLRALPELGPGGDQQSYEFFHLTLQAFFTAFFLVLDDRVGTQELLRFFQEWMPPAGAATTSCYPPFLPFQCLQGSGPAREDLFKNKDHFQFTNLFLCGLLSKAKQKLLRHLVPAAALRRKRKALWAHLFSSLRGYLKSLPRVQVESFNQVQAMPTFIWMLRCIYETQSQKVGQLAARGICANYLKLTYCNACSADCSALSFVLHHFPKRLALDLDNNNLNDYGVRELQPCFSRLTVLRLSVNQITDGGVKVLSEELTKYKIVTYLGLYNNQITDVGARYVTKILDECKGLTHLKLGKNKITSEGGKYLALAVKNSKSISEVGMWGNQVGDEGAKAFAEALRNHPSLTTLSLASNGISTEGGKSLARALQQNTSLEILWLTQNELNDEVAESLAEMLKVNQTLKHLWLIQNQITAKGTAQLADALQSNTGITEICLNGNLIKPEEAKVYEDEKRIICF

[2] = target: NOD2 (Homo sapiens, UniProt Q9HC29); assay: NOD2 NF-κB luciferase reporter assay, HEK293T cells over-expressing NOD2; type: cell-based; design: expressed in transfected cells; host or cells: HEK293T NF-κB-luciferase cells, lentiviral transduction, sorted by EGFP; conditions: LOPAC screen, 384-well, compounds at 5 μM
Protocol: The compounds of these inventions were identified using cell-based high through put (FITS) assays with an NO-κB-driven luciferase reporter gene as a measure of NOD1 or NOD2 activity.
Plates were then incubated for 60 minutes at room temperature. […] Final concentration of test compounds in assay was 4 μM. Final DMSO concentration was 1%. […] After incubation, plates were removed from incubator and allowed to equilibrate to room temperature (10-15 minutes). Three microliters of Steady-Glo® luciferase assay detection reagent (Promega) was added to entire plate using Multidrop Combi and immediately centrifuged for 30 seconds on a VSpin™ integrated microplate centrifuge at 1500 rpm (Velocity11/Agilent Technologies) and incubated for 20 minutes at room temperature. Luminescence was read on a Viewlux microplate imager (PerkinElmer). For the purpose of a single concentration primary NOD2 counter-screen, a stable line based on the HEK293T-NF-κB-Luc constitutively over-expressing NOD2 was developed as a surrogate. Experimental procedures were followed but in the absence of any inducer.
Development of NOD2 cell-based luciferase assay. […] The Z′ factor was determined to be 0.71, which is sufficiently robust for HTS (see FIG. 15). […]
Luciferase-based primary assays. […] After a ten minute incubation at room temperature, light emission was measured with the Analyst™ Microplate reader (LJL Biosystems).

Compound	Luciferase induction (agonists), hit cut-off [2] [%]	further results
CCCCCCCCCCCCCC(=O)O[C@@H]1[C@@H](C)[C@@]2(O)[C@@H](C=C(CO)C[C@]3(O)C(=O)C(C)=C[C@@H]23)[C@@H]2C(C)(C)[C@]12OC(C)=O [PMA, phorbol 12-myristate 13-acetate, reference compound]	–	Luciferase induction (NF-κB agonists), hit cut-off [1]: ≥ 90%
C[C@H]1CCC/C=C/[C@@H]2C[C@H](O)C[C@H]2[C@H](O)/C=C/C(=O)O1 [brefeldin A]	≥ 50	–
COc1cc2c(c(OC)c1OC)-c1ccc(OC)c(=O)cc1[C@@H](NC(C)=O)CC2 [colchicine]	≥ 50	–
N-tosyl-L-phenylalanine chloromethyl ketone [TPCK, reference compound]	–	Luciferase inhibition, hit cut-off [1]: ≥ 50%
